Measured values reported in the supplement of paper PMC3334620.
Whole data set: some 33,000 sequences, median “E-score (-0.5 to 0.5)” near -0.015, cut for the highest 2% near 0.3. This is one part of the list.

target: T1, Abf1 (UniProt P14164); assay: PBM E-score (8-mer binding enrichment) (E-score (-0.5 to 0.5)); higher = stronger / more preferred TF binding; conditions: protein concentration: 200 nM; construct: GST-full length
T1 sequence: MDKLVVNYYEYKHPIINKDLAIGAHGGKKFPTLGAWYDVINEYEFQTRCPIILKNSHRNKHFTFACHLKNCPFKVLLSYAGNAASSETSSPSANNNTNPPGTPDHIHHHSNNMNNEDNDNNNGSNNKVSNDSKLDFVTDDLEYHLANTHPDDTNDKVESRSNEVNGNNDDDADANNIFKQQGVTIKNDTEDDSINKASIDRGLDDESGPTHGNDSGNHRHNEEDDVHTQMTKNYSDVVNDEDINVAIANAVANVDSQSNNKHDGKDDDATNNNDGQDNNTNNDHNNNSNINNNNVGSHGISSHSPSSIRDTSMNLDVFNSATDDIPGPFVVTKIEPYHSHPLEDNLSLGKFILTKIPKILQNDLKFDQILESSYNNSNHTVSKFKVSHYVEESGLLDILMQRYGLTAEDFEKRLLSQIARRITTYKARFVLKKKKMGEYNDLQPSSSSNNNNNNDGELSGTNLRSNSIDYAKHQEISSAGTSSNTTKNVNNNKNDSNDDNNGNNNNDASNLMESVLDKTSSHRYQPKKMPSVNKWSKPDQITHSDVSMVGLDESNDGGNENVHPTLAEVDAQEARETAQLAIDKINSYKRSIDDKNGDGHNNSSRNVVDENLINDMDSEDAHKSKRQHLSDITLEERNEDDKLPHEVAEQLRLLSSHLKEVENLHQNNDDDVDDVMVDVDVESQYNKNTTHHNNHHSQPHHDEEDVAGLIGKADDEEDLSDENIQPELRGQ
Method in brief: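 Yeast transcription factors, full-length or as DNA-binding domains, were expressed with a GST tag using PURExpress in vitro transcription/translation. At about 100-200 nM they were applied to universal all-10-mer Agilent arrays, double-stranded by primer extension on fresh or once-stripped slides. Fluorescent anti-GST detected bound protein, and masliner normalised the scans. E-scores for ungapped eight-base words, pooled with reverse complements, came from the Universal PBM Analysis Suite.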

| Sequence | PBM E-score |
| --- | --- |
| CCCTGGAG | -0.15 |
| ATTGTAGG | -0.00207 |
| AGGGGACA | -0.0441 |
| CCAAATTC | 0.0534 |
| ATTACAGA | 0.0621 |
| AAGAAGTG | 0.133 |
| ATACGTAC | 0.165 |
| CGTTCATC | 0.138 |
| CATGTCTC | 0.0543 |
| CAAGGTAC | -0.0308 |
| AGAGTTGG | -0.102 |
| GGTGGCAA | -0.133 |
| CGTCTGAG | 0.221 |
| CAACGTAA | -0.0145 |
| ATAATTGC | -0.0145 |
| CGATAAGA | 0.0404 |
| CACTACTG | -0.109 |
| AATAACAA | 0.013 |
| GAAGGCCA | -0.164 |
| CCAAGCCA | -0.0609 |
| AAGAAAAG | -0.0972 |
| TCGTACAA | 0.402 |
| CCGGCTGA | 0.0032 |
| CACTACCG | 0.0572 |
| GGGGCGTA | -0.232 |

| Sequence | PBM E-score |
| --- | --- |
| CCAGCTCA | -0.0487 |
| ACTTTGTC | 0.217 |
| ACCATTCA | -0.0516 |
| ACAGCCGC | -0.223 |
| CAACGCGG | -0.0899 |
| ATTGACCG | -0.033 |
| CCCAGATA | -0.232 |
| ATCTTATA | 0.177 |
| GGTTCAAC | 0.0604 |
| AAGATAGT | 0.00969 |
| ACAAGCCG | 0.0151 |
| GAACACGA | 0.265 |
| ATAGAGTA | 0.0724 |
| TCGACACA | -0.0348 |
| GGTGCGAA | -0.0663 |
| CGCGCAAA | 0.0477 |
| AAGGGCCA | -0.172 |
| ATAACATA | 0.179 |
| ACTGCGTA | -0.0404 |
| CGCCCGAG | -0.203 |
| CTGGGTAA | -0.0825 |
| ACTCCTAA | -0.042 |
| TCCACTAA | 0.0233 |
| CGACGGTC | 0.173 |
| GGTTGGAC | -0.202 |

| Sequence | PBM E-score |
| --- | --- |
| AAGTGCTA | -0.145 |
| AGCGTCGA | -0.00081 |
| CAAACAGC | -0.104 |
| AATGGCCA | -0.157 |
| AGCTTTCA | 0.0515 |
| ACCCCGAT | -0.0491 |
| GATCATGA | 0.227 |
| CTCATCAC | 0.217 |
| GCTGCATA | 0.153 |
| CACCTTGC | -0.04 |
| TGGCTACA | -0.0535 |
| CAAACAAA | 0.0701 |
| AAGGGAGA | -0.0764 |
| AGGGCCTA | -0.185 |
| ACGCTTTC | -0.079 |
| CTGGCATC | -0.326 |
| TCCGGTCA | -0.00303 |
| AATGTGCT | 0.143 |
| AATCCGCA | 0.0369 |
| CTATGGTC | -0.169 |
| CTGGCGTA | -0.056 |
| AAGGTATC | 0.129 |
| ATACACGC | 0.0882 |
| CTGCCCCA | 0.0404 |
| ATCGGGTG | 0.158 |

Single entries from the list:
Value for TGGCTACA under PBM E-score: -0.0535
Value for TCCGGTCA under PBM E-score: -0.00303
Value for AGCTTTCA under PBM E-score: 0.0515

Continuation.

| Sequence | PBM E-score |
| --- | --- |
| ATTGTACG | 0.256 |
| GTCCAGTA | -0.0693 |
| AACACAAT | 0.0216 |
| GCTATGAA | -0.0376 |
| GAAACTAA | 0.0636 |
| ATCCGAGA | -0.0475 |
| CTACCTGC | -0.0913 |
| CACGACCA | 0.153 |
| AGGTATAG | -0.1 |
| CTGAACAC | 0.0466 |
| AGCCATCC | -0.0585 |
| GCGTAGGA | -0.086 |
| CGCCCAGC | -0.136 |
| GAGTACCC | -0.167 |
| AGGCCGTC | 0.0126 |
| CACAGCCA | -0.272 |
| AGCTGGGA | -0.0373 |
| AAATGACC | 0.215 |
| AAAACTTT | -0.115 |
| AACGGCCA | 0.13 |
| CACTGGTC | -0.0801 |
| ATATTAAG | 0.112 |
| GCAACGCC | -0.152 |
| AGTTGCTC | -0.131 |
| GCGTCAAA | 0.0641 |

| Sequence | PBM E-score |
| --- | --- |
| CGGTTACC | 0.00897 |
| ACACGCGT | 0.0699 |
| GAATGCCA | -0.122 |
| AGTAGCGG | 0.0593 |
| CGAAACGC | -0.179 |
| GGCGGGGA | -0.0761 |
| CCGATCTA | -0.207 |
| ACAGTGGT | -0.0354 |
| ATCCTTTC | -0.0367 |
| GGCCTAAA | -0.131 |
| ACCAGTGG | -0.261 |
| ACAGACAG | -0.0188 |
| GACGTCGA | -0.026 |
| ACTGTCGA | 0.00425 |
| CGAATACC | -0.0202 |
| AGATCCAA | -0.00396 |
| ATTGATCC | 0.0261 |
| TAACGTTA | 0.236 |
| TCGCGCGA | 0.175 |
| AGAACTAG | -0.208 |
| GGGTCGAA | -0.15 |
| CGCAGAAG | -0.101 |
| ATACCGGA | -0.0534 |
| AGGCCGGG | -0.2 |
| AGATCTCC | -0.153 |

| Sequence | PBM E-score |
| --- | --- |
| CAAGTGCG | -0.0242 |
| ATGTGACA | 0.288 |
| CCCAATCA | -0.0424 |
| CGTAGGTA | 0.142 |
| CTATCGCA | -0.0586 |
| GCCTTGTA | -0.0394 |
| CTGTGCTA | -0.00739 |
| AAACTCAC | -0.136 |
| ACGACTGC | 0.13 |
| GAGCCACA | -0.15 |
| ATAGATTG | -0.0569 |
| CGCCAAAG | -0.111 |
| CATGCCTA | -0.227 |
| CCCTCGCC | -0.185 |
| TTGCCAAA | 0.0748 |
| AACCCTGA | -0.00511 |
| TACAAACA | 0.0936 |
| CCGGCACC | 0.0532 |
| CTTATGCC | -0.0544 |
| CACGCGCG | 0.0534 |
| AACGCCAG | -0.0605 |
| ATCGATTG | 0.14 |
| GCAAGGGC | -0.372 |
| ACAAGAAG | -0.0978 |
| ATAAGAGG | 0.0476 |

Looked up one by one from above, 7 records:

| Sequence | PBM E-score |
| --- | --- |
| AGGCCGTC | 0.0126 |
| AATGGCCA | -0.157 |
| ATAGATTG | -0.0569 |
| CCAAGCCA | -0.0609 |
| AGATCTCC | -0.153 |
| AGCCATCC | -0.0585 |
| AAGAAAAG | -0.0972 |

Next records

| Sequence | PBM E-score |
| --- | --- |
| GTGGCAGA | 0.00546 |
| ATGTGCCG | 0.1 |
| CATCCCGG | -0.0328 |
| ACCTGTAG | -0.299 |
| GAACATGA | -0.103 |
| CCGCTTAC | -0.189 |
| CGAAATTA | 0.234 |
| ACGTTATC | -3e-05 |
| AGCACTGA | -0.353 |
| GCCACCGA | -0.0995 |
| AGACCGAC | -0.00992 |
| AACAGCCT | -0.102 |
| ATCCTGAC | 0.0365 |
| TGGAGTAA | 0.0103 |
| CGAAATCC | 0.0314 |
| CCCAGGGA | -0.439 |
| CGAGTATA | -0.0629 |
| ACATATGC | -0.204 |
| TCTTGCAA | -0.0161 |
| ATATTTTA | 0.181 |
| CGCTAACA | -0.0116 |
| AGGTAAAG | -0.0766 |
